{"source": "patent US12472193B2", "about": "“Methods and compositions for treating and preventing respiratory related diseases and conditions with xylitol-headgroup lipid analogs” (National Jewish Health, priority 2017, dated 2025)", "origin": "cited, not measured here", "settings": "exogenous POPG, earlier studies; cited from earlier work", "note": "Not every entry of the source has a single result; some have several. They are shown here; other results are not. The source may hold further records. Results that share an entry do not match, cause unknown; dose, time, organism, isomer or construct need not be as stated for each record.", "data": [{"smiles": "CCCCCCCC/C=C\\CCCCCCCC(=O)OC(COC(=O)CCCCCCCCCCCCCCC)COP(=O)(O)OCC(O)CO", "note": "(stereo not shown)", "values": [{"measurement": "half-life in the mouse lung", "value": "about 45 minutes and around 45 minutes and 45 minutes"}]}]}
